Experimental data: PubChem BioAssay AID1508588 (Peter MacCallum Cancer Centre, 2020)

Test: 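Knock-downs boosting vemurafenib effects on melanoma cell growth or lactate release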 (primary screen)
System: human WM266.4 melanoma cells (BRAF V600 mutant)
Reagents: siRNA pool against human genes, 40 nM
Timing: 96 h from transfection to read-out
Treatment: vemurafenib 300 nM (about IC25), added 48 h after transfection, for 48 h; comparison arm got DMSO vehicle only
Read-out: 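Ratios to non-targeting siRNA for cell gain, counted as DAPI nuclei after minus before drug and averaged over two replicates, and for absorbance-read medium lactate per cell; both binned into fold-change classes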
Direction: cell gain with vemurafenib: higher = more cell gain than with non-targeting siRNA; lactate per cell with vemurafenib: higher = more lactate made per cell
Active means: 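a knock-down counts as enhancing when its fold-change classes with vehicle and with vemurafenib, taken together, show a stronger drug effect on cell gain or lactate per cell; exact class pairs not stated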
Calls: active = enhances vemurafenib effect; inactive = no enhancement seen
Shown is a random part of about 18,000 deposited reagents. Of all reagents, 790 (4.4%) got an active call. 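Calls rest on a combination of fold-change classes in drug and vehicle arms, not all shown here.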 Unmarked entries are inactive. Reagents against one gene are numbered here. A reagent listed more than once was tested more than once; the source does not tell the runs apart.

| gene knocked down | reagent no. | cell gain with vemurafenib | lactate per cell with vemurafenib |
| --- | --- | --- | --- |
| OR2D2 | 1 | 1 | 1.22 |
| NCK2 | 1 | 0.67 | 0.98 |
| PDE6G | 1 | 0.55 | 0.92 |
| FABP2 | 1 | 1.01 | 0.73 |
| IGF2 | 1 | 0.89 | 0.98 |
| MRGPRD | 1 | 0.82 | 0.67 |
| LRRC42 | 1 | 0.82 | 0.83 |
| YY1 | 1 | 0.5 | 0.56 |
| NUDT15 | 1 | 0.66 | 0.58 |
| NLRP12 | 1 | 0.91 | 1.05 |
| PRAMEF1 | 1 | 0.49 | 0.56 |
| OR5F1 | 1 | 0.68 | 1.17 |
| MAIP1 | 1 | 0.16 (active) | 0.64 |
| ZNF827 | 1 | 0.83 | 0.6 |
| TUBGCP5 | 1 | 0.9 | 0.58 |
| SDC4 | 1 | 0.22 | 2.04 |
| RTP4 | 1 | 0.7 | 1.15 |
| DOCK9 | 1 | 0.28 | 1.96 |
| CASP2 | 1 | 0.99 | 0.57 |
| RNF139 | 1 | 1.14 | 0.86 |
| MAK | 1 | 0.37 | 1.27 |
| XBP1 | 1 | 0.82 | 0.87 |
| KCNH8 | 1 | 0.62 (active) | 0.06 |
| KCNH8 | 1 | 0.79 (active) | 0.32 |
| FRMPD1 | 1 | 0.88 | 1.08 |
| METTL25 | 1 | 0.67 | 1.25 |
| USO1 | 1 | 0.83 | 1.02 |
| SMC1A | 1 | 0.24 | 0.82 |
| PDE12 | 1 | 0.22 | 0.88 |
| PARP1 | 1 | 0.68 | 1.05 |
| UBE2E1 | 1 | 0.94 | 0.59 |
| RDM1 | 1 | 0.68 | 0.73 |
| TXNDC12 | 1 | -0.09 | 3.77 |
| TAF2 | 1 | 0.15 | 1.46 |
| TBX2 | 1 | 0.7 | 0.9 |
| MAGED4B | 1 | 0.93 | 0.91 |
| SRSF7 | 1 | 0.34 | 0.96 |
| DNAJC2 | 1 | 0.61 | 1.14 |
| YJU2B | 1 | 0.88 | 0.64 |
| CDCA7L | 1 | 0.69 | 1.29 |
| LRATD1 | 1 | 1.09 | 1.35 |
| CERS3 | 1 | 0.35 | 0.54 |
| UFSP2 | 1 | 0.85 | 0.88 |
| CTBP1 | 1 | 0.73 | 1.45 |
| DAPK1 | 1 | 0.36 | 1.46 |
| FLT1 | 1 | 0.92 | 0.64 |
| CLDN20 | 1 | 1.01 | 0.82 |
| CPXCR1 | 1 | 0.78 | 0.52 |
| ETHE1 | 1 | 0.5 | 1.18 |
| ZNF416 | 1 | 0.73 | 1.34 |
| CTNND2 | 1 | 0.42 (active) | 0.57 |
| MVD | 1 | 0.06 | 1.58 |
| PALM2AKAP2 | 1 | 0.72 | 1.25 |
| PALM2AKAP2 | 2 | 0.92 (active) | 0.66 |
| PALM2AKAP2 | 3 | 0.76 | 0.75 |
| ZNF75D | 1 | 0.72 | 0.57 |
| GOLPH3L | 1 | 0.35 | 1.22 |
| CEACAM5 | 1 | 0.32 | 1.39 |
| ACYP1 | 1 | 0.5 | 0.62 |
| SACK1B | 1 | 1 | 0.84 |
| HS3ST3B1 | 1 | 0.7 | 1.06 |
| PGA4 | 1 | 0.23 | 0.52 |
| TMPRSS3 | 1 | 0.68 | 1.02 |
| OR13D1 | 1 | 1 | 0.48 |
| NTRK3 | 1 | 0.9 | 1.1 |
| S100A10 | 1 | 0.44 | 0.76 |
| MFF | 1 | 0.73 | 0.91 |
| FAS | 1 | 0.33 | 0.73 |
| SEMA4B | 1 | 0.69 | 0.77 |
| LYAR | 1 | 0.83 | 0.74 |
| SULT1C4 | 1 | 0.53 | 1.11 |
| SERPINC1 | 1 | 0.33 | 1.52 |
| ZFP64 | 1 | 0.16 | 1.42 |
| SLC6A19 | 1 | 0.72 | 0.73 |
| OPRK1 | 1 | 0.26 (active) | 0.44 |
| SCML4 | 1 | 0.24 | 1.14 |
| ITGBL1 | 1 | 0.75 | 0.62 |
| MTF2 | 1 | 0.78 | 0.44 |
| XAF1 | 1 | 0.41 | 0.48 |
| ABCC6 | 1 | 0.16 | 1.15 |
| PGBD3 | 1 | 0.82 | 1.05 |
| CYB561D1 | 1 | 0.77 | 0.74 |
| RARA | 1 | 0.14 | 1.43 |
| TMEM121B | 1 | 0.26 | 1.12 |
| SHLD1 | 1 | 0.39 | 1.02 |
| KCNE1 | 1 | 0.67 | 0.92 |
| PALMD | 1 | 0.73 | 0.64 |
| SRBD1 | 1 | 0.19 | 1.19 |
| BPI | 1 | 0.82 | 0.84 |
| HTRA4 | 1 | 0.67 | 1.06 |
| ACSM1 | 1 | 0.38 | 1.15 |
| GUF1 | 1 | 0.55 | 0.87 |
| SNX27 | 1 | 0.62 | 1 |
| PLEKHG5 | 1 | 0.29 | 1.45 |
| UNKL | 1 | 1.01 | 0.81 |
| DAW1 | 1 | 0.64 | 1.6 |
| CDH22 | 1 | 0.47 | 1.8 |
| PRRC2C | 1 | 0.44 | 1.02 |
| CNOT1 | 1 | -0.02 | 2.52 |
| TIMM17A | 1 | 0.53 | 0.88 |
| LAIR2 | 1 | 0.68 | 0.76 |
| TLNRD1 | 1 | 0.29 | 1.85 |
| PDE1A | 1 | 0.94 | 0.71 |
| IFT46 | 1 | 0.16 (active) | 0.4 |
| MMP13 | 1 | 0.54 | 1.08 |
| INHBA | 1 | 0.79 | 0.86 |
| UGT8 | 1 | 0.95 | 1.19 |

Hits, of those listed so far:
| gene knocked down | reagent no. | cell gain with vemurafenib | lactate per cell with vemurafenib |
| --- | --- | --- | --- |
| MAIP1 | 1 | 0.16 (active) | 0.64 |
| KCNH8 | 1 | 0.62 (active) | 0.06 |
| KCNH8 | 1 | 0.79 (active) | 0.32 |
| CTNND2 | 1 | 0.42 (active) | 0.57 |
| PALM2AKAP2 | 2 | 0.92 (active) | 0.66 |
| OPRK1 | 1 | 0.26 (active) | 0.44 |
| IFT46 | 1 | 0.16 (active) | 0.4 |
